# PubChem BioAssay AID602196 | INSERM, 2012
# Screen: 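Genes whose knock-down alters cisplatin killing of lung cancer cells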
# Cells: human A549 lung cancer cells
# Reagent: siRNA pair against human genes
# Time to read-out: 48 h transfection before cisplatin; time from cisplatin to read-out not stated
# Conditions: cisplatin at a dose killing half of control-siRNA cells; exact dose and duration not given
# Measurement: 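Shift in cisplatin death relative to control siRNA, from -50 (all cells die) to +50 (no cells die); siRNAs harmful on their own scored 0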
# Reading the numbers: two-siRNA summed score (-2 to +2): higher = both siRNAs protect from cisplatin killing; -2 means both sensitise; mean protection from cisplatin (shift in death) and protection from cisplatin (shift in death), siRNA C and protection from cisplatin (shift in death), siRNA D: higher = protection from cisplatin killing
# Rule for the call: 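siRNAs harmful alone (LDH or WST-1) get 0; others get +1 for less and -1 for more cisplatin killing; genes are active when the two siRNAs give the same sign, summing to ±2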
# Calls: active = both siRNAs shift cisplatin killing the same way; inactive = no consistent shift, or siRNA harmful alone
# The whole screen tested about 23,000 reagents; shown is a random part of them. 455 of them (2%) count as active. 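Active includes both protection and sensitisation; some change values fall well beyond the stated -50 to +50 range.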 The record does not give: the amount of reagent.
two-siRNA summed score (-2 to +2),mean protection from cisplatin (shift in death) (%),"protection from cisplatin (shift in death), siRNA C (%)","protection from cisplatin (shift in death), siRNA D (%)",call,Gene
2,16.7,16.8,16.6,active,LOC442001
0,7.5,13.5,1.4,inactive,CYP1B1-AS1 (GeneID 285154)
0,8,5,11.1,inactive,CDK4 (GeneID 1019)
0,6.4,2.4,10.3,inactive,CIMAP3 (GeneID 128344)
0,15.4,31.8,-1.1,inactive,MGC24125
0,16.3,1.9,30.6,inactive,MARF1 (GeneID 9665)
0,5.1,3.9,6.2,inactive,PAXBP1 (GeneID 94104)
0,-26.1,-25.8,-26.4,inactive,SLC9A8 (GeneID 23315)
0,10.2,15.7,4.6,inactive,MIS18A (GeneID 54069)
1,15.8,12.6,19,inactive,TEX11 (GeneID 56159)
0,6.3,11.3,1.3,inactive,SPRED2 (GeneID 200734)
0,1.4,-2.2,5,inactive,VENTX (GeneID 27287)
0,10.3,15.2,5.5,inactive,SEC31A (GeneID 22872)
0,8.9,12.6,5.2,inactive,UBLCP1 (GeneID 134510)
0,-17.7,-10.7,-24.8,inactive,LOC387978
1,13.1,14.8,11.4,inactive,HOPX (GeneID 84525)
0,-5.2,0.6,-11,inactive,LRRC55 (GeneID 219527)
-1,-22.1,-30.9,-13.3,inactive,SERTAD4 (GeneID 56256)
0,8,8.4,7.5,inactive,TIMP3 (GeneID 7078)
0,4.9,1.6,8.1,inactive,LOC401454
0,8.7,21.6,-4.3,inactive,ZNF688 (GeneID 146542)
0,-0.7,4.6,-5.9,inactive,ARPIN (GeneID 348110)
0,8,0.3,15.7,inactive,ANKRD29 (GeneID 147463)
0,13.1,11.2,15,inactive,DCAF16 (GeneID 54876)
0,7.2,9.3,5.2,inactive,LOC401082
0,-8.7,-10.2,-7.2,inactive,PHF19 (GeneID 26147)
0,5.5,8.3,2.7,inactive,SNAI3-AS1 (GeneID 197187)
-1,-15.9,-30.1,-1.7,inactive,CKAP4 (GeneID 10970)
1,6.7,19.5,-6.1,inactive,TMEM132E (GeneID 124842)
-1,-19.1,5.1,-43.3,inactive,TUBB3 (GeneID 10381)
-1,-0.5,8.5,-9.4,inactive,SOX18 (GeneID 54345)
0,3,3.8,2.2,inactive,PATE1 (GeneID 160065)
0,1.2,-3.1,5.6,inactive,CILP (GeneID 8483)
1,5.8,18.6,-7,inactive,AHCYL2 (GeneID 23382)
-1,-7.1,-2.5,-11.7,inactive,ACTN3 (GeneID 89)
0,-3.1,-1,-5.2,inactive,MAIP1 (GeneID 79568)
0,2.2,0,4.5,inactive,LOC400921
0,0.9,2.6,-0.7,inactive,GPN2 (GeneID 54707)
0,3.2,6.4,0.1,inactive,ASPM (GeneID 259266)
0,-0.8,1.7,-3.4,inactive,XAGE2 (GeneID 9502)
0,1.9,12.9,-9.1,inactive,ZNF692 (GeneID 55657)
0,6,8.4,3.6,inactive,LOC387832
0,6.9,9,4.9,inactive,MYO16 (GeneID 23026)
-1,-1.3,13.1,-15.7,inactive,SCN8A (GeneID 6334)
0,-4.1,1.7,-9.8,inactive,C3orf18 (GeneID 51161)
1,22.3,24,20.6,inactive,KBTBD3 (GeneID 143879)
-1,-2.4,-10.9,6.1,inactive,ATP9B (GeneID 374868)
0,2.1,-6.4,10.5,inactive,LOC120105
0,5.7,-21.6,33,inactive,GPR62 (GeneID 118442)
0,26.2,42.7,9.8,inactive,H3-3B (GeneID 3021)
-1,-9.2,-18.5,0,inactive,KCNH3 (GeneID 23416)
0,8.6,12.9,4.3,inactive,MAP7D1 (GeneID 55700)
0,13.9,5.9,22,inactive,FAM169BP (GeneID 283777)
0,-1.8,-7.6,4.1,inactive,MFSD1 (GeneID 64747)
-1,-9.6,-16.1,-3.2,inactive,TOR3A (GeneID 64222)
0,9.9,6.4,13.4,inactive,KHDRBS1 (GeneID 10657)
0,3,5.8,0.2,inactive,NUDCD3 (GeneID 23386)

Called active, of those listed so far:
two-siRNA summed score (-2 to +2),mean protection from cisplatin (shift in death) (%),"protection from cisplatin (shift in death), siRNA C (%)","protection from cisplatin (shift in death), siRNA D (%)",call,Gene
2,16.7,16.8,16.6,active,LOC442001
